Source: publication PMC6418045
Results are given in words; binding and its absence hold for the method and conditions named. For some of these results: In cells and extracts the contact can be indirect. Some results given as binding are weak or reduced against the parent protein; the word gives no strength. Tags and fused reporters may be left off the sequences shown. Blank lines part the entries; values can stand above or below the molecule they belong to.

Amino acid sequences for entries named in this document (tags omitted).
UniProt A0A387K3P5: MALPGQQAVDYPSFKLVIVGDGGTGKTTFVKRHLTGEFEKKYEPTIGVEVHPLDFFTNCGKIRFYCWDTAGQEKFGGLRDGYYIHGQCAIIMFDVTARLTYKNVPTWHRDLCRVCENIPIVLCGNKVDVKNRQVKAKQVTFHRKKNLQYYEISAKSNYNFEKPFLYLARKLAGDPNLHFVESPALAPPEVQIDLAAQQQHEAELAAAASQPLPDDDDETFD

Experiments:
[1] = biological target: T1, NbRanBP1-1a (Nicotiana benthamiana Ran-binding protein 1-1a), bait fusion in pGBKT7 (Nicotiana benthamiana); experiment: two-hybrid; … Two-Hybrid System3, yeast strain AH109; NbRanBP1-1a in bait vector pGBKT7, NbRan1a in prey vector pGADT7; growth on SD lacking leucine, tryptophan, histidine and adenine
T1 sequence: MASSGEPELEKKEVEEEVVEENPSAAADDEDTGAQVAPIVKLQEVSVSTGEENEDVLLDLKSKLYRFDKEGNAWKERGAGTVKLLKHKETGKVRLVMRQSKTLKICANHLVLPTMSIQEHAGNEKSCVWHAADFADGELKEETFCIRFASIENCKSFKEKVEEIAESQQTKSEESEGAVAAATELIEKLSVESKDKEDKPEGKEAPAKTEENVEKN

[2] = biological target: GFP-NbRan1a (Nicotiana benthamiana); experiment: co-IP; GFP-NbRan1a or GFP co-expressed with FLAG-NbRanBP1-1a in N. benthamiana leaves by agroinfiltration, harvested 48 h after inoculation; precipitation with anti-GFP antibody by the text (anti-FLAG by the legend), immunoblot with anti-FLAG and anti-GFP
[3] = biological target: nGFP-NbRan1a (Nicotiana benthamiana); experiment: split reporter; BiFC with split GFP (nGFP 2-174, cGFP 175-239) in N. benthamiana leaf epidermal cells by agroinfiltration; imaged about 2 days after inoculation
[4] = biological target: cGFP-NbRan1a (Nicotiana benthamiana); experiment: as above

- binding [1]: binds
Molecule: NbRan1a (Nicotiana benthamiana small GTPase Ran1a), prey fusion in pGADT7 (from UniProt A0A387K3P5 1-221)

- binding [2]: binds
B1: FLAG-NbRanBP1-1a (protein, UniProt A0A387K1P8 1-216)
chain: MASSGEPELEKKEVEEEVVEENPSAAADDEDTGAQVAPIVKLQEVSVSTGEENEDVLLDLKSKLYRFDKEGNAWKERGAGTVKLLKHKETGKVRLVMRQSKTLKICANHLVLPTMSIQEHAGNEKSCVWHAADFADGELKEETFCIRFASIENCKSFKEKVEEIAESQQTKSEESEGAVAAATELIEKLSVESKDKEDKPEGKEAPAKTEENVEKN

- binding [3]: binds
B2: cGFP-NbRanBP1-1a (protein, UniProt A0A387K1P8 1-216)
chain: MASSGEPELEKKEVEEEVVEENPSAAADDEDTGAQVAPIVKLQEVSVSTGEENEDVLLDLKSKLYRFDKEGNAWKERGAGTVKLLKHKETGKVRLVMRQSKTLKICANHLVLPTMSIQEHAGNEKSCVWHAADFADGELKEETFCIRFASIENCKSFKEKVEEIAESQQTKSEESEGAVAAATELIEKLSVESKDKEDKPEGKEAPAKTEENVEKN

- binding [4]: binds
B3: nGFP-NbRanBP1-1a (protein, UniProt A0A387K1P8 1-216)
chain: MASSGEPELEKKEVEEEVVEENPSAAADDEDTGAQVAPIVKLQEVSVSTGEENEDVLLDLKSKLYRFDKEGNAWKERGAGTVKLLKHKETGKVRLVMRQSKTLKICANHLVLPTMSIQEHAGNEKSCVWHAADFADGELKEETFCIRFASIENCKSFKEKVEEIAESQQTKSEESEGAVAAATELIEKLSVESKDKEDKPEGKEAPAKTEENVEKN
